Results from patent US9192569B2 (Novacta Biosystems Limited, priority 2010, dated 2015).

Assay: general procedure: peptide synthesis; PyBOP, diisopropylethylamine
Details: late stage modification step

Row | Substance | step yield
1 | Deoxyactagardine B [3-(3′,5′-dichlorobenzylamino)-1-propylamine]monocarboxamide | 33%
2 | Deoxyactagardine B [8-(3′,5′-dichlorobenzylamino)octylamine]monocarboxamide | 63%
3 | Deoxyactagardine B [7-(3′,5′-dichlorobenzylamino)-1-heptylamine]monocarboxamide | 35%
4 | Deoxyactagardine B [3-(2′-aminomethyl-4′-(2″-nitro-4″-chlorophenyl)-furanyl)propylamine]monocarboxamide | 11%
5 | Deoxyactagardine B [5-(3′,5′-dichlorobenzylamino)-pentylamine]monocarboxamide | 36%
6 | Deoxyactagardine B [4-(2′-(3″,5″-dichlorobenzylamino)ethyl)piperazine]monocarboxamide | 15%
7 | Deoxyactagardine B [3-(2′-aminomethyl-4′-(2″,4″-dichlorophenyl)-furanyl)propylamine]monocarboxamide | 11%
8 | Deoxyactagardine B [3-(3′-(3″,5″-dichlorobenzylamino)propylamino) propylamine]monocarboxamide | 22%
9 | Deoxyactagardine B 19-[4-(2′-(3″,5″-dinitrobenzamido)-ethyl)-piperazine]monocarboxamide | 20%
10 | Deoxyactagardine B [3-(3′,5′-dichlorobenzamido)propylamine]monocarboxamide | 61%
11 | Deoxyactagardine B [6-(3′,5′-dichlorobenzylamino)-hexylamine]monocarboxamide | 51%
12 | Deoxyactagardine B [6-(2′,4′,6′-trichlorobenzenesulfonamido)hexylamine]monocarboxamide | 73%
13 | Deoxyactagardine B [4-(3′,5′-dichlorobenzylaminomethyl)benzyl]monocarboxamide | 37%
14 | Deoxyactagardine B [2-(3′,5′-dichlorobenzylamino)ethylamine]monocarboxamide | 51%
